Data as given in PubChem BioAssay AID686937 (Drosophila RNAi Screening Center, 2013).
Purpose: 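Genes in the fly needed for secretion of protein constitutively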 (primary screen). System: Drosophila S2 cells expressing secreted horseradish peroxidase. Reagents: long dsRNA against Drosophila genes. Timing: about 5.5 days (5 days dsRNA, then 12 h reporter induction). Conditions: reporter expression induced after 5 days of dsRNA, read 12 h later; inducer not stated. Detection: 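Chemiluminescent measurement of peroxidase in the medium 12 h after reporter induction, following 5 days of dsRNA, given as a z-score per plate; higher means more secretion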. Scale: z-score: higher = more reporter secreted into medium.
The screen tested about 23,000 reagents; below is a random part of those that have a named target and a result. 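Reduced-secretion tags in replicate 1 do not always agree with the z-scores; no criterion for assigning the tags was given.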 The numbers tell different reagents against one gene apart. Names joined by + are all predicted targets of the reagent. Not all columns of the deposit are shown. Not given: the amount of reagent.

With knock-down of FRG1 (FSHD region gene 1) the results were z-score, replicate 1 = 0.34.
Jon99Ci (Jonah 99Ci) gave z-score, replicate 1 = 0.1.
After knock-down of CG42374 + Mettl5 the results were z-score, replicate 1 = 0.52.
swm (second mitotic wave missing) #1 gave z-score, replicate 1 = 0.25.
swm (second mitotic wave missing) #2 showed z-score, replicate 1 = -2.05.

3 entries from above, reformatted.
{"predicted target": "CG42374 + Mettl5", "dsRNA no.": 1, "z-score, replicate 1": 0.52}
{"predicted target": "swm (second mitotic wave missing)", "dsRNA no.": 1, "z-score, replicate 1": 0.25}
{"predicted target": "swm (second mitotic wave missing)", "dsRNA no.": 2, "z-score, replicate 1": -2.05}

More records follow:
Depletion of barc (barricade) came out at: z-score, replicate 1 = 0.01.
beta-PheRS (Phenylalanyl-tRNA synthetase, beta-subunit) gave z-score, replicate 1 = -0.21.
After knock-down of Isha (Insulator su(Hw) mRNA adaptor), the screen gave z-score, replicate 1 = 0.23.
Depletion of CG17187 gave: z-score, replicate 1 = -0.23.
CG9344 gave z-score, replicate 1 = -0.26.
After knock-down of CG12688 (retired record) #1 the results were z-score, replicate 1 = 0.28.
Knock-down of CG12688 (retired record) #2 came out at: z-score, replicate 1 = -0.54.
CG34300 gave z-score, replicate 1 = -0.11.
Irbp (Inverted repeat-binding protein) scored z-score, replicate 1 = 0.22.
Silencing of OS9 + Hf gave: z-score, replicate 1 = 0.38.
Knock-down of Pp1-Y1 (Protein phosphatase 1, Y-linked 1) gave: z-score, replicate 1 = -1.52.
